Data from PMC6637791.
No constants are given. Whether binding was seen depends on the method and setting. Some binding calls cover weakened binding; strength is not graded here. For some assays here: Sequences can lack the tags named with a protein.

How the values were obtained:
[1] = molecular target: T1, TatC I50Y (Escherichia coli) (UniProt P69423); test: native gel or EMSA; BN-PAGE/Western blot of membranes solubilized with 1% digitonin, without beta-mercaptoethanol; blots with TatB, TatC or (after stripping) EfeB antibodies; EfeB overproduced where indicated
T1 sequence: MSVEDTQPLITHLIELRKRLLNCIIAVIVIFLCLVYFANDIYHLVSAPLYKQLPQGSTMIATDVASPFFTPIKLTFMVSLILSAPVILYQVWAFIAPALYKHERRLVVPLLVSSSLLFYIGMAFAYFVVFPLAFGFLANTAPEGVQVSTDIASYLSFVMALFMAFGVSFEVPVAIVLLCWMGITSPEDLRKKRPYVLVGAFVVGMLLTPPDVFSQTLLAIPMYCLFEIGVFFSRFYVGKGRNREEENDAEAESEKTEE

[2] = molecular target: T2, TatC (wild type, C-terminally hexahistidine-tagged) (Escherichia coli) (UniProt P69423); test: as above
T2 sequence: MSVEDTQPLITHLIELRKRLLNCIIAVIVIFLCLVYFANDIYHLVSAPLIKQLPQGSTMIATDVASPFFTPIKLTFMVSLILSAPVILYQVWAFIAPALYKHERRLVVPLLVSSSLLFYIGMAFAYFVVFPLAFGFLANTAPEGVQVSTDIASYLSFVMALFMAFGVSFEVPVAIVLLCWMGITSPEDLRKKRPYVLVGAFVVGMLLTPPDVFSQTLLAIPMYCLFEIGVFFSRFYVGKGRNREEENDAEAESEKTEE

binding [1]: binds
binding [2]: binds
B1: TatB (protein, UniProt P69425 1-171)
chain: MFDIGFSELLLVFIIGLVVLGPQRLPVAVKTVAGWIRALRSLATTVQNELTQELKLQEFQDSLKKVEKASLTNLTPELKASMDELRQAAESMKRSYVANDPEKASDEAHTIHNPVVKDNEAAHEGVTPAAAQTQASSPEQKPETTPEPVVKPAADAEPKTAAPSPSSSDKP
